From the supplement of paper PMC4256282, “Profound Activity of the Anti-cancer Drug Bortezomib against Echinococcus multilocularis Metacestodes Identifies the Proteasome as a Novel Drug Target for Cestodes” (PLoS Neglected Tropical Diseases, 2014)
The list shows a part of the results. Most values come without repeats; read them as rough.

System: Echinococcus multilocularis metacestodes
Assay: vesicle damage (PGI release) relative to positive control DB1127 at 20 µM, DMSO subtracted; higher = more parasite damage
Settings: treatment time 5 days

Compound | vesicle damage
COc1cc(C(C)=O)ccc1OCCCN1CCC(c2noc3cc(F)ccc23)CC1 [Iloperidone] | -8.74%
COc1cc2/c(=N/c3ccc(Br)cc3F)nc[nH]c2cc1OCC1CCN(C)CC1 [Vandetanib] | -1.88%
CCOC(=O)c1ncn2c1CN(C)C(=O)c1cc(F)ccc1-2 [Flumazenil] | -0.713%
COC(=O)C1=C(C)NC(C)=C(C(=O)OCC(C)C)C1c1ccccc1[N+](=O)[O-] (stereo unspecified) [Nisoldipine] | -9.37%
N#Cc1ccc(C(c2ccc(C#N)cc2)n2cncn2)cc1 [Letrozole] | -1.47%
C[C@H](N[C@@H](CCc1ccccc1)C(=O)O)C(=O)N1CCC[C@H]1C(=O)O [Enalaprilat dihydrate] | -2.58%
